From patent publication US8927579B2, “Male contraceptive” (priority 2007, dated 2015)
Structures can show the parent of a compound that is named as a salt.

Experiments:
[1] = system: circular muscle of human vas deferens; assay: IC50 against contractions evoked by high K+ (120 mM) in the presence of FPL 64176, circular muscle rings; settings: contractions evoked by K+ (120 mM) in the presence of FPL 64176 (1 μM), means ± S.E.M.
Protocol: (§1) Human vas deferens specimens were obtained after elective vasectomies of healthy fertile men. College ethical approval and the consent of patients were obtained. The specimens were placed in ice-cold Krebs' medium, dissected-free of connective tissue/blood vessels and cut longitudinally into strips (longitudinal muscle preparations; 5-10 mm long & 1 mm wide) or transversely into rings (circular muscle preparations; 3 mm in length). […] Contractile responses were recorded via a Harvard-type force-displacement transducer. […]
(§2) Tissues were equilibrated for 180 min in Krebs' medium containing inhibitors of extraneuronal and neuronal reuptake of noradrenaline, oestradiol (1 μM) and desipramine (0.1 μM) respectively, inhibitors of catechol-O-methyltransferase and monoamine oxidase, tropolone (10 μM) and iproniazid (10 μM) respectively and the β-adrenoceptor blocker, propranolol (1 μM). […] The resulting contractions were measured (see below) and expressed as a percentage of corresponding initial responses to high [K^+]o evoked in the presence of L-type Ca^2+ agonists (i.e. before exposure to L-type Ca^2+ antagonists). […]

[2] = system: longitudinal muscle of human vas deferens; assay: IC50 against contractions evoked by high K+ (120 mM) in the presence of FPL 64176, longitudinal muscle strips; settings: contractions evoked by K+ (120 mM) in the presence of FPL 64176 (1 μM), means ± S.E.M.
Protocol: as §1, §2

Compound | IC50 [1] | IC50 [2]
C(=C\c1ccccc1)/CN1CCN(C(c2ccccc2)c2ccccc2)CC1 [Cinnarizine, cinnarizine] | 18.5 ± 5.7 µM | 11.4 ± 3.3 µM
CSc1ccc2c(c1)N(CCC1CCCCN1C)c1ccccc1S2 (stereo not shown) [Thioridazine, thioridazine hydrochloride] | 22.3 ± 3.3 µM | 7.9 ± 2.3 µM
